Among the data in article PMC5418573 are binding values, retold here.

Results are given in words; binding and its absence hold for the method and conditions named. Binding seen in cells or lysates may run through a third protein. A yes stands for co-enrichment or nearness to the bait. Other partners may have been found. Sequences can lack the tags named with a protein.

The target in the experiment is T1, PolB1 from Sulfolobus acidocaldarius, C-terminally myc and hexahistidine-tagged (Sulfolobus acidocaldarius) (UniProt P95690).
T1 sequence: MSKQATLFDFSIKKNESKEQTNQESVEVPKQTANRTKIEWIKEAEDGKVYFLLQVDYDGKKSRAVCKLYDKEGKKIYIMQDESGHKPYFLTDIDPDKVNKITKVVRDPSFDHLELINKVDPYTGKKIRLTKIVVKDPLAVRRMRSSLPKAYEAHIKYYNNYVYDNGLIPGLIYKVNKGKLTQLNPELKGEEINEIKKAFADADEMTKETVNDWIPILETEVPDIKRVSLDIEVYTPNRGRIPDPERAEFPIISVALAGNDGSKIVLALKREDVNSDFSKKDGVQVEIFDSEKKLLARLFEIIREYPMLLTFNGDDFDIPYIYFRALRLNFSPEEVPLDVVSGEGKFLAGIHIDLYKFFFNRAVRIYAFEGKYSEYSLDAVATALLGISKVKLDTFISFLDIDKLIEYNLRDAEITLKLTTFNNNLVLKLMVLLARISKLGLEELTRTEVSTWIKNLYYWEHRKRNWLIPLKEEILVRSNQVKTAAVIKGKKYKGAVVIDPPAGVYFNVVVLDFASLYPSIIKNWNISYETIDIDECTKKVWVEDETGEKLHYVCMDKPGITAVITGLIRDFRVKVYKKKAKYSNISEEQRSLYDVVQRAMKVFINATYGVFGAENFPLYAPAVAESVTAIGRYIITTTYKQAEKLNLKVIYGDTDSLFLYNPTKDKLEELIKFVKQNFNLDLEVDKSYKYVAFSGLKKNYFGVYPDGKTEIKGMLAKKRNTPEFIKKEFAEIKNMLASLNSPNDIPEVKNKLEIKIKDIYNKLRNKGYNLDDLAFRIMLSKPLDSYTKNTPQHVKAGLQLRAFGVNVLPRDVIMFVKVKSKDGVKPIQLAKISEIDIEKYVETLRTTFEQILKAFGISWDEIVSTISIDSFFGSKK
In words: affinity purification with mass spectrometry; lysate of S. acidocaldarius with chromosomally tagged PolB1 (control strain SacTK) passed through Ni-NTA and MonoQ; gel bands identified by LC-MS/MS.

B1: PolB1-binding protein 1 (PBP1) of Sulfolobus acidocaldarius, product of Saci_0746 (protein, UniProt Q4JAQ7 1-96)
chain: MSSTTRWTPKWKTVKIKLNDKDIDICFDEITKLYACPICAPECKKGNTPNYGAYFFSLDDLKEHVLSHNFSYWLRKRKTEEEEEEEEKVKAEEEEE
Turning to B1, the binding entry is “binds”.

B2: PolB1-binding protein 2 (PBP2) of Sulfolobus acidocaldarius, product of Saci_1566 (protein, UniProt Q4J8K0 1-70)
chain: MPEDELEKAKKYFQNVVSVGEILAVRELKALGISDPEKVINKLIELGFIEKGEGCYNLIRERSKDSARNK
As to B2, the binding result is “binds”.
